PubChem BioAssay AID504467 (National Center for Advancing Translational Sciences (NCATS), 2011)
In all, about 330,000 compounds went through this assay and about 7,700 (2.3%) were called active. This list was built around the results that the source calls inconclusive (neither active nor inactive); the mix of calls is not that of the screen. Calls come from the whole dose curve; as a rule, active = well fitted inhibition curve with a large enough effect; inconclusive = small, poorly fitted or top-dose-only effect, or effect the other way; inactive = flat fitted curve, though single readings scatter. Potencies of inconclusive entries are doubtful fits and often do not repeat.

Assay: qHTS screen for small molecules that inhibit ELG1-dependent DNA repair in human embryonic kidney (HEK293T) cells expressing luciferase-tagged ELG1; note: nearly all actives have a fitted effect of over 55% in size
Details: HEK293T ELG1-luciferase reporter, luminescence, 16 h, DNA damage induced by 5-fluorouridine; series mostly up to 46.1 µM
Outline: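 Reporter activity after DNA damage by 5-fluorouridine is monitored. Compound-treated cells incubate 16 hr at 37 °C, then ONE-Glo is added for 30 min before luminescence reading.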
Potency is the fitted concentration of half-maximal effect.

Row | SMILES | Potency
1 | CCc1ccc(OCC(=O)N/N=C(\C)c2ccc(O)cc2O)cc1 | inconclusive: 18.3 µM [inhibitor, partial curve, poor fit]
2 | COc1ccc(-c2cnnn2-c2ccc(NC(=O)c3ccc(S(=O)(=O)N4CCCCC4)cc3)cc2)cc1 | inconclusive: 32.6 µM [inhibitor, single point]
3 | CC(C)[C@H](CN1CCC[C@H]1CN1C(N)=NC[C@H]1C(C)C)N1C[C@@H](Cc2ccccc2)N(CCCC2CCCC2)C1=N | inconclusive: 20.6 µM [activator, partial curve, poor fit]
4 | COCCn1c(SCC(=O)Nc2cccnc2Cl)nc2cc(Cl)ccc2c1=O | inconclusive: 16.4 µM [inhibitor, single point]
5 | NC(=O)CC(NC(=O)Cc1ccc(Br)cc1)c1ccc(N2CCc3ccccc3C2)c([N+](=O)[O-])c1 (configuration not stated) | inactive
6 | CCOC(=O)Cn1cc(/C=C(\C#N)C(=O)N2CCOCC2)c2ccccc21 | inconclusive: 32.6 µM [activator, partial curve, poor fit]
7 | C=CCN=c1scc(-c2ccc3c(c2)NC(=O)CO3)n1/N=C(\C)c1ccccn1 | inconclusive: 4.11 µM [inhibitor, full curve]
8 | COc1cccc(/C=N/n2c(N)c(S(=O)(=O)c3cccs3)c3nc4ccccc4nc32)c1 | inconclusive: 3.66 µM [inhibitor, partial curve, poor fit]
9 | O=C(Nc1nc2ccc(Cl)cc2s1)c1cccc(N2C(=O)CCC2=O)c1 | inconclusive: 18.3 µM [activator, partial curve]
10 | COC(=O)c1ccc(NC(=O)Cn2nnc3ccccc32)cc1 | inconclusive: 16.4 µM [activator, partial curve]
11 | Cc1ccc(-c2ccc(NC(=O)C3C4C=CC(C4)C3C(=O)O)cc2)o1 (configuration not stated) | inconclusive: 20.6 µM [activator, partial curve]
12 | CCCN(Cc1cc2cc(OC)ccc2[nH]c1=O)C(=O)c1ccncc1 | inconclusive: 5.8 µM [inhibitor, full curve]
13 | Cc1cc(C)nc(-n2ncc3c2CC(c2ccccc2)CC3=O)n1 (configuration not stated) | inconclusive: 29.1 µM [inhibitor, single point]
14 | N#CCSc1ccsc1C(=O)Nc1ccc(F)cc1 | inconclusive: 18.4 µM [activator, partial curve]
15 | O=C(NCc1cccs1)c1ccc2ccccc2n1 | inconclusive: 16.4 µM [activator, single point]
16 | O=C(Nc1ccc(C(=O)N2CCCCC2)cc1)Nc1cccc(Cl)c1 | inconclusive: 9.2 µM [activator, partial curve]
17 | O=C(CSc1nc(Cc2ccccc2)nc2ccccc12)Nc1ccc2c(c1)OCCO2 | inconclusive: 13 µM [inhibitor, partial curve]
18 | COC(=O)c1cc(C)[nH]c2c(C)cc3nc4ccccc4c3c12 | active: 18.3 µM
19 | O=C(CCc1ccccc1)Nc1ccc2ccccc2n1 | inconclusive: 7.3 µM [activator, partial curve]
20 | O=C(c1ccc(Cl)cc1)C1CCCN(Cc2cccn2-c2ccccn2)C1 (configuration not stated) | inconclusive: 29.1 µM [inhibitor, single point]
21 | COc1ccc(C(=O)C2CCCN(C(=O)c3cccnc3SC)C2)c(C)c1 (configuration not stated) | inconclusive: 29.1 µM [inhibitor, single point]

Row | SMILES | Potency
22 | Cc1ccc2nc(-c3ccccc3)cn2c1 | inconclusive: 0.082 µM [activator, full curve, poor fit]
23 | Cc1cc(N/N=C/c2ccc3c(c2)OCO3)nc2ccccc12 | inconclusive: 20.6 µM [activator, partial curve]
24 | COc1cc(/C=N/NC(=O)c2cccc([N+](=O)[O-])c2)ccc1O | inactive
25 | CCC(NC(=O)/C(=C\c1ccc2c(c1)OCO2)NC(C)=O)C(=O)O (configuration not stated) | inactive
26 | N/C(=N\OC(=O)Cc1ccccc1)c1ccc(Br)cc1 | inconclusive: 16.4 µM [activator, single point]
27 | COc1ccc(C(=O)OCCc2ccc(O)cc2)cc1 | inconclusive: 10.3 µM [activator, partial curve]
28 | Cc1ccc2nc(C)cc(Nc3ccc([N+](=O)[O-])cc3)c2c1 | inconclusive: 29.1 µM [activator, single point]
29 | CC1CSC(N(C(=O)c2ccc(S(C)(=O)=O)cc2)c2ccc(Cl)cc2)=N1 (configuration not stated) | inactive
30 | CCCC(=O)N1CCN(c2nc3ccc(Cl)cc3s2)CC1 | inconclusive: 5.17 µM [activator, partial curve]
31 | CCOc1cccc2c1OC(c1cc(OC)c(OC)c(OC)c1)N1N=C(c3ccc(C)o3)CC21 (configuration not stated) | inconclusive: 5.8 µM [activator, partial curve]
32 | Cn1c(=O)cc(OCC(=O)NCCCN2CCN(c3ccccc3F)CC2)c2ccccc21 | inconclusive: 29.1 µM [activator, single point]
33 | Cc1cccc2c1N(CCOc1ccc(C(C)(C)C)cc1)C(=O)C2=O | inconclusive: 18.4 µM [activator, single point]
34 | CCCCOC(=O)c1ccc(NC(=O)c2nn(C)cc2Br)cc1 | inactive
35 | COc1ccc(OC)c(-n2c(C)ccc2-c2ccc(S(C)(=O)=O)cc2)c1 | inactive
36 | CC(C)c1ccc(Nc2c([N+](=O)[O-])c(=O)n(C)c3ccccc23)cc1 | inactive
37 | CC(C)(C)C1CCC(C(=O)Nc2ccc(N3CCOCC3)cc2N2CCOCC2)CC1 (configuration not stated) | active: 14.6 µM
38 | CCc1ccc(/C=C2/Sc3ccccc3N(CC(=O)NCC3CCCO3)C2=O)cc1 (configuration not stated) | active: 13 µM
39 | COc1cccc(-n2c(-c3ccco3)nc3nc4ccccc4nc32)c1 | inconclusive: 16.4 µM [inhibitor, partial curve]
40 | Cc1ccc(Nc2ncccc2C(=O)O)cc1C | inconclusive: 20.6 µM [activator, partial curve]
41 | CCCN(CCC)C(=O)Cn1c(=O)c2ccccc2n2c(=S)sc(-c3ccccc3C)c12 | inactive
42 | CC(C)NC(=O)/C(C#N)=C/c1ccc(N(C)C)o1 | inconclusive: 11.6 µM [activator, partial curve]

Looked up above:
Value of `CC(C)c1ccc(Nc2c([N+](=O)[O-])c(=O)n(C)c3ccccc23)cc1` under Potency: inactive
Value of `Cc1cc(N/N=C/c2ccc3c(c2)OCO3)nc2ccccc12` under Potency: inconclusive: 20.6 µM [activator, partial curve]

Copied from above, 2 compounds:
Row | SMILES | Potency
4 | COCCn1c(SCC(=O)Nc2cccnc2Cl)nc2cc(Cl)ccc2c1=O | inconclusive: 16.4 µM [inhibitor, single point]
5 | NC(=O)CC(NC(=O)Cc1ccc(Br)cc1)c1ccc(N2CCc3ccccc3C2)c([N+](=O)[O-])c1 (configuration not stated) | inactive
